The record followed here is PubChem BioAssay AID2685 (National Center for Advancing Translational Sciences (NCATS), 2010).

The list shows a part of the results. Further columns of the screen follow, without active or inactive calls. Most of these compounds were active or inconclusive in the main read-out, so they are no random draw. Potencies come from curve fits of mixed quality, noted in brackets.

The assay is described as follows: qHTS Assay for Lipid Storage Modulators in Drosophila S3 Cells.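 On cell number change: cells counted by Cell Tracker Red CMTPX staining in the red channel.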 To be noted: BODIPY lipid droplet fluorescence, 18-24 h; for cell number change: measured here: cell count max response, cells fed with added oleic acid. The essentials:
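Drosophila S3 cells loaded with oleic acid (400 uM, as added) and compounds at several concentrations; lipid droplets imaged by 488-nm laser-scanning cytometry, 500–530 nm intensity and object ratio to cell channel. Percent activity normalized to 20 uM Triacsin C.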
(In general: In qHTS, concentration-response curves come from the screen itself.)

The mark [1] stands for this setting: measured here: cell number channel AC50, cells fed with added oleic acid.
The mark [2] stands for this setting: measured here: lipid fluorescence (Fed channel) AC50, cells fed with added oleic acid.

Consider `CC(C)(C)c1ccc(OCc2nc(-c3ccccn3)no2)c(Br)c1`, for which the cell number change is -45.6%. Also, the AC50 under setting [1] is 29.1 µM [falling, single point]. For the same compound, the AC50 under setting [2] is 29.1 µM [falling, single point].

For `CN(C(=O)CSc1nc2cc([N+](=O)[O-])ccc2n1-c1ccc(F)cc1)C1CCS(=O)(=O)C1` (stereo not drawn), the cell number change is 14.9%. Further, the AC50 under setting [2] is 23.1 µM [rising, partial curve, poor fit].

Take `CC1CCCCC1NS(=O)(=O)c1ccc(S(=O)(=O)N2CCCC2)cc1` (stereo not drawn): the cell number change was determined as 8.66%. Also, the AC50 under setting [2] is 5.17 µM [rising, single point].

Turning to `COC(=O)c1ccc(Cn2cnc3c(sc4nc(N5CCOCC5)c5c(c43)CCCC5)c2=O)o1`, the AC50 under setting [1] is 0.58 µM [rising, single point] and the AC50 under setting [2] was 1.03 µM [rising, full curve].

In the case of `CCc1c(C(=O)NNC(=S)NCc2ccccc2)csc1C`, the cell number change was determined as 16.4%. The AC50 under setting [2] is 2.59 µM [rising, partial curve].

Regarding `CN1CCN(c2nc3c(c(=O)[nH]c(=O)n3C)n2Cc2ccccc2F)CC1`, the cell number change was -1.1%. Besides, the AC50 under setting [2] was 0.00461 µM [rising, full curve, poor fit].

Take `CCOC(=O)C1=NOC(Cn2cc(C#N)c(=O)n(C)c2=O)C1` (stereo not drawn): the cell number change is 8.87%.

Regarding `N#CCCN(C(=O)COC(=O)Cc1c[nH]c2ccccc12)c1ccccc1`, under setting [2], the AC50 was 10.3 µM [rising, partial curve].

As to `CCN1C(=O)/C(=C\N(C)C)S/C1=N\S(=O)(=O)c1ccccc1`, the cell number change was determined as 10.8%. Under setting [2], the AC50 is 0.00517 µM [falling, full curve, poor fit].

Consider `CN(CC1CCCO1)S(=O)(=O)c1ccc(C(=O)Nc2ccc([N+](=O)[O-])cc2)cc1` (stereo not drawn), for which the AC50 under setting [2] is 11.2 µM [falling, partial curve].

Regarding `O=C(O)c1[nH]c2ccccc2c1NS(=O)(=O)c1ccc(F)cc1`, the concentration at half-maximal activity (AC50) under setting [2] was 0.731 µM [falling, partial curve].

Consider `O=C(NC1CCN(S(=O)(=O)c2ccccc2)CC1)c1cccc(F)c1`, for which the cell number change was -5.25%. The AC50 under setting [2] was 8.2 µM [falling, partial curve].

For `Cc1c(-c2ccccc2)c(P(=O)(N2CCOCC2)N2CCOCC2)c2ccccn12`, the cell number change is 31.8%. Under setting [1], the concentration at half-maximal activity (AC50) was 20.6 µM [rising, single point]. In addition, under setting [2], the AC50 was 8.2 µM [rising, partial curve].

For the compound `CCOc1cc(/C=N/NC(=O)C(=O)NCCCOC(C)C)cc(Br)c1O`, the cell number change was -52.4%. Also, under setting [1], the AC50 was 29.1 µM [falling, single point]. For the same compound, the AC50 under setting [2] was 0.651 µM [rising, partial curve].

As for `Cc1ccc2nc(SCC(=O)c3c(N)n(C)c(=O)n(C)c3=O)[nH]c2c1`, the cell number change was -5.74%. Besides, the half-maximal activity concentration (AC50) under setting [1] was 0.164 µM [rising, full curve, poor fit].

Take `Cc1c(Br)c([N+](=O)[O-])nn1C(C)C(=O)N1CCCc2ccccc21` (stereo not drawn): the cell number change was -22.9%. Moreover, the AC50 under setting [1] was 2.31 µM [rising, single point].

With `COc1ccc(NC(=O)C(c2ccc(Cl)cc2)C(C)C)cn1` (stereo not drawn), the cell number change is -33.7%.

As to `Fc1ccc(-n2cc(-c3ccccc3)[n+]3c2SCC3)cc1`, the cell number change turned out to be 135%.

Take `Cc1ccc(F)c(NC(=O)CCOc2ccccc2C)c1`: the cell number change is 0.549%. The AC50 under setting [2] was 0.58 µM [falling, single point].

Turning to `O=C1CC(NS(=O)(=O)c2ccc3ccccc3c2)CN1c1ccccc1` (stereo not drawn), the cell number change was 44.8%.

Take `Cc1ccc(C)c(SCC(=O)c2ccc[nH]2)c1`: the AC50 under setting [1] was 0.00517 µM [falling, full curve, poor fit].

Regarding `O=C(c1ccc(Cn2cc([N+](=O)[O-])cn2)o1)N1N=C(C(F)F)CC1(O)C(F)F` (stereo not drawn), the AC50 runs as follows: under setting [1], 3.26 µM [rising, single point]; under setting [2], 2.91 µM [rising, single point].

With `CC(=Nc1ccccc1)C1=C(O)COC1=O`, the cell number change is -7.26%. The AC50 under setting [1] was 5.8 µM [falling, single point]. Besides, the AC50 under setting [2] was 29.1 µM [rising, single point].

With `O=C(O)CCC(=O)N(Cc1ccccc1)Cc1ccccc1`, the cell number change was -12.4%.

Turning to `CCCCCCCCCCS(=O)(=O)N/N=C/c1ccc(O)cc1`, the cell number change was -19.7%. The AC50 under setting [2] is 29.1 µM [falling, single point].

Regarding `Cc1ccc(N2C(=O)C3ON(c4ccccc4)C(c4ccncc4)C3C2=O)c(C)c1` (stereo not drawn), the cell number change amounted to 1.71%.

Consider `CCCCc1cc(=O)oc2cc(C)cc(OC(C)C(=O)NCc3ccncc3)c12` (stereo not drawn), for which the cell number change is -6.6%.

Turning to `N#C/C(=C\c1ccncc1)c1ccc(NC(N)=O)cc1`, the cell number change came out at 16.3%. Under setting [1], the AC50 is 1.03 µM [rising, full curve, poor fit].

On to `Cc1ccc2nc(Cl)c(/C=N/n3c(C)nnc3C)cc2c1`, for which the cell number change was -12.2%. In addition, under setting [2], the AC50 is 6.51 µM [falling, single point].

On to `C=CCNC(=O)C1CC(=O)N(c2ccc(OCc3ccccc3Cl)cc2)C1` (stereo not drawn), for which the cell number change was determined as 3.44%. The AC50 under setting [2] is 0.092 µM [rising, full curve, poor fit].

In the case of `Cc1ccc(N(CC(=O)NC2CC3CCC2C3)S(C)(=O)=O)cc1C` (stereo not drawn), the cell number change is 1.65%. In addition, the AC50 under setting [2] is 0.058 µM [falling, full curve, poor fit].

On to `CC1CCCCC1NC(=O)CCC(=O)N1CCOc2ccc(Cl)cc21` (stereo not drawn), for which the cell number change came out at 28.3%. Also, under setting [2], the AC50 is 2.06 µM [rising, full curve].

Take `CCc1cccc(C)c1NC(=O)CN(C)Cc1ccc(Br)cc1`: the cell number change came out at 33.9%. Besides, the concentration at half-maximal activity (AC50) under setting [1] is 18.4 µM [rising, single point].

As for `Cc1ccc2c(c1)N(CC(=O)NC1CCCCC1)C(=O)c1cccnc1O2`, the cell number change stood at 15%. Also, the AC50 under setting [2] was 6.51 µM [rising, single point].

Turning to `Cc1ccc(CNC(=O)c2ccccc2NC(=O)CN2CC(C)OC(C)C2)cc1` (stereo not drawn), the cell number change was found to be 5.41%.

Regarding `O=C(O)c1ccc(C2NCC(c3ccccc3Cl)c3c2[nH]c2ccccc32)cc1` (stereo not drawn), the cell number change was -31.7%. Under setting [1], the AC50 was 2.91 µM [falling, partial curve]. Further, the AC50 under setting [2] was 3.66 µM [falling, full curve].

`COc1ccc(Cc2nnc(NC(=O)c3ccc(OC(C)=O)cc3)s2)cc1OC`: the cell number change is 18.9%. Besides, the AC50 under setting [2] was 29.1 µM [rising, single point].

In the case of `CCN(CC)C(=O)c1ccc(-c2nnc(Nc3ccc(C(=O)N(C)C)cc3)c3ccccc23)cc1`, the cell number change was -11.2%. Also, under setting [2], the AC50 is 3.26 µM [falling, partial curve, poor fit].

`COc1cccc2sc(N(CCN(C)C)C(=O)c3ccc4c(c3)CCCC4)nc12`: the cell number change was -10.1%. For the same compound, the AC50 under setting [2] was 25.9 µM [falling, single point].

On to `COc1ccc(CN2C(=O)C(C)Oc3ccccc32)cc1` (stereo not drawn), for which the cell number change is 5.61%.

On to `O=C(Nc1ccc(S(=O)(=O)N2CCCCC2)cc1)C1CC(=O)N(c2ccc(F)cc2)C1` (stereo not drawn), for which the cell number change is -31.4%.

`CCCCc1cc(=O)oc2cc(C)c(CN3CCCC3)c(O)c12`: under setting [2], the concentration at half-maximal activity (AC50) is 29.1 µM [falling, single point].

As for `C=C(C)c1cccc(C(C)(C)NC(=O)N2CCOCC2)c1`, the cell number change came to 2.5%. The AC50 under setting [2] was 29.1 µM [falling, single point].

For the compound `CN(CC(=O)Nc1ccc(F)cc1)CC(=O)NC1CCCCC1`, the cell number change came to 24.1%. Also, the concentration at half-maximal activity (AC50) under setting [2] is 7.31 µM [falling, partial curve, poor fit].

For `CS(=O)(=O)N(CC(=O)N1CCN(Cc2ccc3c(c2)OCO3)CC1)Cc1ccc(Cl)cc1`, the cell number change was -38.7%. Besides, under setting [1], the AC50 is 10.3 µM [falling, partial curve, poor fit]. The AC50 under setting [2] is 16.4 µM [falling, partial curve].

Regarding `Cn1c(-c2ccccc2O)cc2ccccc21`, the cell number change was -50.4%. Also, the AC50 under setting [1] was 16.4 µM [falling, partial curve, poor fit]. In addition, the AC50 under setting [2] was 16.4 µM [falling, partial curve, poor fit].

On to `COc1ccc(/C=C/C(=O)c2cc(F)ccc2OC(=O)c2ccccc2OC)cc1OC`, for which the cell number change is -25.7%. For the same compound, under setting [2], the concentration at half-maximal activity (AC50) was 16.4 µM [falling, single point].

Regarding `COc1cccc(NC(=O)c2ccccc2-c2nc(-c3ccccc3)no2)c1`, the cell number change turned out to be 6.6%. The AC50 under setting [2] was 11.6 µM [rising, partial curve, poor fit].

As to `CC(=O)c1ccc(NC(=O)C2=CC(c3ccc4c(c3)OCO4)=NS(=O)(=O)N2C)cc1`, the cell number change was -27.4%.

`CCCCn1c(N)c(N(CC)C(=O)CSc2nnnn2-c2cc(C)ccc2C)c(=O)[nH]c1=O`: the AC50 under setting [2] is 0.13 µM [falling, full curve, poor fit].

Consider `Cc1ccc(OCC(=O)OC2CCS(=O)(=O)C2)cc1` (stereo not drawn), for which the cell number change is -23.3%. The half-maximal activity concentration (AC50) under setting [2] is 5.8 µM [falling, full curve].

As to `CCOc1cc(C(C(=O)NCC2CCCO2)N(C(=O)Cn2nnc3ccccc32)c2ccc(OC)c(OC)c2)ccc1O` (stereo not drawn), the cell number change amounted to 18.5%. For the same compound, the AC50 under setting [2] was 2.91 µM [falling, single point].

On to `CC1CCCC(C)N1C(=O)CSc1nc(N)c(-c2ccccc2)c(=O)[nH]1` (stereo not drawn), for which the cell number change was -70.5%. Besides, the AC50 under setting [1] is 20.6 µM [falling, single point]. Also, the AC50 under setting [2] is 29.1 µM [falling, single point].

`CCC(CC)C(=O)N1c2ccc(F)cc2CCC1C` (stereo not drawn): the cell number change amounted to 0.34%. For the same compound, the AC50 under setting [2] is 0.731 µM [falling, single point].

Turning to `Nc1c(Cl)nc(-c2ccccc2)nc1Cl`, the cell number change was 32.1%. For the same compound, the AC50 under setting [1] was 1.64 µM [rising, partial curve]. Also, the AC50 under setting [2] is 2.59 µM [rising, single point].

In the case of `CCOC(=O)c1c(-c2ccc(C)o2)csc1NC(=O)CSc1nnc(C)s1`, the cell number change was -12.5%.

As for `Nn1c(SCC(=O)NC2CCCCC2)nnc1-c1ccco1`, the cell number change is 43.6%. Under setting [1], the AC50 is 29.1 µM [rising, single point]. Further, under setting [2], the AC50 was 25.9 µM [rising, single point].

Consider `CCN(CC)C(=O)Oc1ccc2c(=O)c(-c3ccc(OC)cc3)coc2c1`, for which the cell number change came to 4.53%. Further, under setting [1], the AC50 was 6.51 µM [rising, single point].

With `CCN(CC)CCNC(=O)Cn1nc(Cc2cccnc2)c2ccccc2c1=O`, the cell number change was -27.1%. Besides, the AC50 under setting [1] was 3.26 µM [falling, full curve, poor fit]. In addition, under setting [2], the AC50 is 16.4 µM [falling, single point].

For the compound `O=C(COC(=O)c1ccc(CO)cc1)c1ccc(S(=O)(=O)N2CCCCC2)cc1`, the cell number change was -8.81%. In addition, the AC50 under setting [2] was 0.82 µM [falling, full curve, poor fit].

The AC50 is the concentration giving half of the maximal activity seen.
